Measured values reported in patent US20240199756A1.
No constants are given. Whether binding was seen depends on the method and setting. Some results given as binding are weak or reduced against the parent protein; the word gives no strength. Where a sequence is shown, tags or fusion partners need not be part of it.

Molecular target: T1, D1-Ig (NKp46 domain I fused to Ig) (human), O76036
T1 chain: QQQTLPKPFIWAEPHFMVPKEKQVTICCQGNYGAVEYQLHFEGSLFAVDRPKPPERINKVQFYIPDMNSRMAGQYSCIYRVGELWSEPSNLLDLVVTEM
Test: BIAcore
Settings: remark: other sources report otherwise

B1: mouse anti-NKp46 monoclonal antibody 09 (antibody, V domains shown)
VH: EVQLQQSGPELVKPGTSVKISCKTSGYTFTEYSMHWVKQSHGKSLEWFGGISPNSGGTSYNQKFKGKATLTVDKSSSTAYMELRSLTSEDSAVYYCARRDFHSSFDYWGQGTTLTVSS
VL: DIVMTQSPATLSVTPGDRVSLSCRASQSISDYLHWFQQKSHESPRLLIKYASQSISGIPSRFSGSGSGSDFTLSINSVEPEDVGVYYCQNGHSFPLTFGPGTKLELK
binding: binds
